PubChem BioAssay AID2685 (National Center for Advancing Translational Sciences (NCATS), 2010)
This is one part of the list. These are further read-outs of the screen, such as a control signal, another cell line or another target. No call is given for them. Compounds called inactive in the main read-out are mostly missing here. The note in brackets gives the kind of curve behind each potency; many fits are weak.

Experiment: qHTS Assay for Lipid Storage Modulators in Drosophila S3 Cells;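 on cell number change: cells counted by Cell Tracker Red CMTPX staining in the red channel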
Conditions: BODIPY lipid droplet fluorescence, 18-24 h; for cell number change: measured here: cell count max response, cells fed with added oleic acid
How it was run: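 Laser-scanning cytometry quantifies lipid droplet accumulation (500–530 nm total intensity; droplet/cell object ratio) in oleic acid-fed (400 uM added) Drosophila S3 cells treated with a concentration series. 20 uM Triacsin C defined 100% inhibition.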

[1] = measured here: cell number channel AC50, cells fed with added oleic acid
[2] = measured here: lipid fluorescence (Fed channel) AC50, cells fed with added oleic acid

Compound	cell number change [%]	AC50 [1]	AC50 [2]
CC1(C)Cc2c(sc3nc4n(c(=N)c23)CCCCC4)CO1	-50.4	5.17 µM [falling, full curve]	0.82 µM [falling, full curve]
Cc1ccccc1N1CCN(C(=O)C2CCCCC2)CC1	-7.57	–	4.11 µM [falling, partial curve]
Fc1ccc(CSc2nncn2NCc2ccc3c(c2)OCO3)cc1	–	2.06 µM [rising, partial curve]	1.84 µM [rising, partial curve]
COCCn1c(SCC(=O)NC2CCCC2)nnc1C(C)C	16.2	–	0.58 µM [falling, single point]
CN(C)S(=O)(=O)c1ccc(C(=O)NCCOc2ccc(F)cc2)cc1	–	–	7.31 µM [falling, single point]
OC(COc1ccc(Cl)cc1)CN1CCCCC1 (stereo not drawn)	9.73	–	0.517 µM [falling, full curve]
Cc1ccc(C(C(=O)NC2CCCCC2)N(Cc2ccco2)C(=O)C2COc3ccccc3O2)o1 (stereo not drawn)	-13.1	–	29.1 µM [falling, single point]
CN1/C(=C\C(=S)NC(=O)c2ccc([N+](=O)[O-])cc2)C(C)(C)c2ccccc21	-22.5	–	20.6 µM [falling, single point]
CC1CCN(S(=O)(=O)c2ccc(NC(=O)CN3CCN(C)CC3)cc2)CC1	-17.4	–	4.61 µM [falling, full curve]
Cc1ccc(Cn2nnc3c(=O)[nH]c(C4CCN(S(=O)(=O)c5ccc(C)cc5)CC4)nc32)cc1	163	16.4 µM [rising, partial curve]	–
COc1ccc(-c2nc(SC(CC(=O)NCCN3CCOCC3)c3cccs3)n[nH]2)cc1 (stereo not drawn)	-13.8	–	–
O=[N+]([O-])c1ccc(O)c(/C=N/n2c(CO)nc3ccccc32)c1	14.4	6.51 µM [falling, single point]	–
CN(C)S(=O)(=O)c1ccc2c(c1)/C(=C/c1cc3c([nH]1)CCCC3)C(=O)N2	–	–	6.51 µM [falling, single point]
Cc1cccc(N2C(=S)NC3c4cc(Cl)ccc4OC2(C)C3C(=O)N(C)C)c1 (stereo not drawn)	–	0.184 µM [rising, full curve, poor fit]	0.58 µM [rising, single point]
CCCn1c(=N)c(S(=O)(=O)c2ccc(F)cc2)cc2c(=O)n3ccccc3nc21	-8.96	–	6.51 µM [falling, single point]
CCOc1ccc(CN(C)c2ccc(S(=O)(=O)N3CCN(C)CC3)cc2[N+](=O)[O-])cc1OC	-10.6	–	6.51 µM [falling, single point]
CCOCc1cc(CN2CCCC(CNC(=O)c3ccco3)C2)ccc1OC (stereo not drawn)	4.72	–	11.6 µM [rising, partial curve]
COc1ccc(-c2nc(C)sc2C)cc1	28.9	–	8.2 µM [rising, partial curve]
CSC1=NCCN1C(=O)COc1ccccc1	-47.1	25.9 µM [falling, single point]	–
Cn1nc(-c2ccccc2)c(CO)c1Oc1ccc(F)cc1	2.6	0.184 µM [rising, full curve]	–

Compound	cell number change [%]	AC50 [1]	AC50 [2]
Cc1cccc(C(=O)OC(C)C(=O)N2CCN(Cc3ccccc3)CC2)c1 (stereo not drawn)	217	18.4 µM [rising, single point]	23.1 µM [rising, partial curve]
COc1ccc(C)cc1N1CC(C(=O)Nc2ccccc2N2CCCCC2)CC1=O (stereo not drawn)	–	–	0.82 µM [falling, full curve]
C=CCc1cccc(/C=N/NC(=O)CNc2ccccc2)c1O	-59.6	14.6 µM [falling, partial curve]	14.6 µM [rising, partial curve, poor fit]
O=C(C1=NN[C@@H]2C(=O)N(c3ccccc3C(F)(F)F)C(=O)[C@H]12)c1cnccn1	41.3	–	–
CC(c1ccco1)N(C(=O)CSc1ccc(Br)cc1)c1ccccn1 (stereo not drawn)	9.46	–	0.103 µM [falling, full curve, poor fit]
CC1(C)CC(=O)C2=C(C1)NC1=C(C(=O)c3ccccc31)C2c1ccc(Cl)cc1 (stereo not drawn)	33.3	18.4 µM [rising, single point]	–
COc1ccc(CCn2c(C)cc3c(c2=O)C(c2ccncc2)C(C#N)=C(N)O3)cc1OC (stereo not drawn)	48.7	32.6 µM [rising, partial curve, poor fit]	0.517 µM [rising, partial curve, poor fit]
Cc1ccc(C(NC(=O)NC(C)c2ccccc2)C(Cl)(Cl)Cl)cc1F (stereo not drawn)	-39.9	18.4 µM [falling, single point]	18.4 µM [falling, single point]
Cc1ccc(C)c(S(=O)(=O)NC(C)CCc2ccccc2)c1 (stereo not drawn)	9.21	–	5.62 µM [rising, single point]
C[C@H](NC(=O)c1[nH]cnc1C(=O)Nc1ccc(CNC(=O)OC(C)(C)C)cc1)C(=O)OCc1ccccc1	-6.09	–	29.1 µM [falling, single point]
CCN1C(=O)/C(=C\c2nc3ccccc3c(=O)n2CC)c2ccccc21	-37.5	–	20.6 µM [falling, single point]
CCOC(=O)C1(CC2CCCCO2)CCN(Cc2cc(F)ccc2-n2cccn2)CC1 (stereo not drawn)	16.8	–	1.46 µM [falling, partial curve, poor fit]
COC(=O)CCCC1=CC2=C(c3ccccc3)C(=O)C(C)(OC(=O)C3CCCC3)C(=O)C2=CN1C1CCCCC1 (stereo not drawn)	–	–	6.51 µM [falling, single point]
Cc1cccc(NC(=O)c2sc3nc4c(c(-c5ccco5)c3c2N)CCC4)c1	14	–	0.092 µM [rising, full curve, poor fit]
CCOc1ccc(S(=O)(=O)Nc2ccccc2C(=O)NCC2CCCO2)cc1 (stereo not drawn)	63.5	25.9 µM [rising, partial curve]	–
CCCCc1c(O)nc2n(c1=O)CCS2	–	6.51 µM [falling, single point]	–
Cc1cc2c(cc1S(=O)(=O)NC1CCCCC1C)OCC(=O)N2 (stereo not drawn)	-18.6	–	0.731 µM [falling, partial curve, poor fit]
CC(=O)N1CCN(c2cc3c(cc2F)c(=O)c(C(=O)O)cn3C2CC2)CC1	-30.4	7.31 µM [falling, partial curve]	6.51 µM [falling, partial curve]
COc1ccc(C(=O)N2c3cc4c(cc3C(C)=CC2(C)C)OCO4)cc1	14.8	–	–
CCCn1nnc(NC(=O)/C=C/c2cc(Br)ccc2OC)n1	–	–	6.51 µM [rising, single point]

Taken from above:
Under AC50 [2], Cc1cccc(NC(=O)c2sc3nc4c(c(-c5ccco5)c3c2N)CCC4)c1 is entered as 0.092 µM [rising, full curve, poor fit]
Under AC50 [2], Cc1ccc(C)c(S(=O)(=O)NC(C)CCc2ccccc2)c1 (stereo not drawn) is entered as 5.62 µM [rising, single point]
Under cell number change [%], CCOC(=O)C1(CC2CCCCO2)CCN(Cc2cc(F)ccc2-n2cccn2)CC1 (stereo not drawn) is entered as 16.8
Under cell number change [%], Cc1cc2c(cc1S(=O)(=O)NC1CCCCC1C)OCC(=O)N2 (stereo not drawn) is entered as -18.6

Further results

Compound	cell number change [%]	AC50 [1]	AC50 [2]
CC(C)c1ccc(/C=C/C(=O)NC(=S)Nc2ccc(CN3CCOCC3)cc2)cc1	-1.91	–	23.1 µM [falling, partial curve, poor fit]
Cc1ccc(-n2c(=S)[nH]c3nc4c(cc3c2=O)COC(C)(C)C4)cc1	-36.1	0.164 µM [falling, full curve]	0.13 µM [falling, full curve]
Cc1onc(-c2ccccc2Cl)c1C(=O)N1CCN(c2ccccc2)CC1	–	0.58 µM [falling, single point]	–
CNC(=O)COc1ccc(Nc2nnc(C)c3ccccc23)cc1	-3.91	0.0461 µM [rising, single point]	–
COc1ccc(Br)c(C(=O)OCC(=O)N2CCC(Cc3ccccc3)CC2)c1	-40.1	7.31 µM [falling, partial curve]	–
COCCSc1nnc(NS(=O)(=O)c2ccc(C)cc2)s1	19.8	–	14.6 µM [rising, partial curve, poor fit]
COCC(=O)N/N=C\c1ccc(OC/C=C/c2ccccc2)c(OC)c1	19.2	–	29.1 µM [falling, single point]
CN(C)S(=O)(=O)N1CCN(C(=O)c2cccs2)CC1	8.7	–	–
O=C(COC(=O)c1ccccn1)Nc1cc(Cl)ccc1Cl	-24.5	0.82 µM [falling, full curve]	–
COC(=O)c1cccc(NC(=O)CN2C(=O)c3ccccc3C2=O)c1	-5.11	–	–
O=C(NCC1CC1)C1CCCN(S(=O)(=O)c2ccc(-n3cnnn3)cc2)C1 (stereo not drawn)	47.4	29.1 µM [rising, single point]	–
CCc1ccc(CCC(=O)Nc2sc(C)c(C)c2C(=O)OC)o1	42.9	–	–
COC(=O)C1(Cc2cc(-c3ccccc3)no2)CCN(C(=O)OC(C)(C)C)CC1	-3.89	–	6.51 µM [falling, single point]
CCn1c(-c2c[nH]c3ccccc23)n[nH]c1=S	12.4	–	6.51 µM [rising, single point]
CC(=O)Nc1ccc(SCC(=O)Nc2cc(C)on2)cc1	3.01	–	16.4 µM [falling, single point]
N#C/C(=C(/O)COC(=O)CCc1ccc(S(=O)(=O)N2CCOCC2)cc1)c1nc2ccccc2[nH]1	16.3	–	4.11 µM [falling, full curve]
O=C(NNc1ccccc1Br)C(=O)n1ccc2ccccc21	-37.1	29.1 µM [falling, single point]	4.11 µM [rising, partial curve, poor fit]
N#CC(C#N)=C1c2cc(S(N)(=O)=O)ccc2-c2ccc(S(N)(=O)=O)cc21	-22.6	–	–
COc1ccccc1N1CCN(/N=C\c2ccc(C)o2)CC1	-6.63	–	–
CCc1cccc2c(C(=O)COC(=O)C3=NNC(=O)CC3)c[nH]c12	44.7	–	29.1 µM [rising, partial curve, poor fit]
